Reference: PubChem BioAssay AID743255 (National Center for Advancing Translational Sciences (NCATS), 2014)
The whole screen tested about 390,000 compounds, of which about 910 (0.23%) were called active. Inconclusive results, whose numbers are uncertain, are shown with a selection of clear calls. Calls follow the shape of the dose curve; as a rule, active = well fitted inhibition curve with a large enough effect; inconclusive = small, poorly fitted or top-dose-only effect; inactive = no such curve, though single readings can be large or run the other way. Potencies of inconclusive entries are doubtful fits and often do not repeat.

Sequences of proteins named here, by UniProt entry; tags and fusion partners are left off. A change or cut given only in a name is not applied to a line headed by its entry.
UniProt O94782: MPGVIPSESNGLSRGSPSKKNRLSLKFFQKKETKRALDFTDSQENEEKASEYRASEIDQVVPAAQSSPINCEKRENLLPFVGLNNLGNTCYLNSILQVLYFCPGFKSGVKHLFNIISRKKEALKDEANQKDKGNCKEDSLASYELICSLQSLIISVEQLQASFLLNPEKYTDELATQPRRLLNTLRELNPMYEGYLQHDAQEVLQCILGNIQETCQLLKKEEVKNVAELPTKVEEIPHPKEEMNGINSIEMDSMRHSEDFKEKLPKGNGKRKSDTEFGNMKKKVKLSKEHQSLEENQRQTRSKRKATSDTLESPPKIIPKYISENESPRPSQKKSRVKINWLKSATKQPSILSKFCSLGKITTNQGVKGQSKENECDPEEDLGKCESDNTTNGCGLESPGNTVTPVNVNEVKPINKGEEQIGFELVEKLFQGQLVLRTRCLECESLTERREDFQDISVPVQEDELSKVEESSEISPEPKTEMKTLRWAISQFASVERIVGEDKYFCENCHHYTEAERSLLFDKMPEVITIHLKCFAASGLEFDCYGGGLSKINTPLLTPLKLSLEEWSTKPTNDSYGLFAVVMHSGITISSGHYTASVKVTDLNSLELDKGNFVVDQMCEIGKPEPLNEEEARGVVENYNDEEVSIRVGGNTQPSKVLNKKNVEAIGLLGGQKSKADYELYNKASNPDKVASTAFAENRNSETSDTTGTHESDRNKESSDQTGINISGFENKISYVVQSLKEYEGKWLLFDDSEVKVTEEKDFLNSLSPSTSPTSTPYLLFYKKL

Molecular target: Ubiquitin carboxyl-terminal hydrolase 1 (Homo sapiens) (UniProt O94782)
Experiment: Inhibitors of USP1/UAF1: Primary Screen; also: nearly all actives have a fitted effect of over 60% in size
Conditions: recombinant USP1/UAF1, Ub-Rhodamine cleavage fluorescence; activity change, negative = inhibition: at 57.1 µM (top of the series)
Outline: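 In this screen, compounds sit with the deubiquitinase complex (1nM) for 15 min at room temperature before Ub-Rho is added at 150nM final. Fluorescence rise is then followed for 6 reads every 60 seconds.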
% is scaled to controls: 0 for no effect and ±100 for the full control effect; potency is read from the fitted curve at half-maximal effect.

Potency, active:
CC1(C)C=C2C(=NN(c3ccccc3)C(N)=C2C#N)CO1 4.47 µM

Potency, inconclusive:
Cc1cc(C)cc(NC(=S)N2CCC(NC(=O)C3CCCCC3)CC2)c1 44.7 µM [inhibitor, partial curve, poor fit]
CN(Cc1cc(Cl)cc(Cl)c1O)Cc1c(O)ccc2ccccc12 79.4 µM [inhibitor, partial curve, poor fit]
Cc1ccc2nc(Nc3ccc(F)cc3)c3nncn3c2c1 6.31 µM [inhibitor, full curve, poor fit]
CNc1nc(-c2ccc3c(c2)CCN3C(=O)c2ccccc2F)cs1 31.6 µM [inhibitor, partial curve]
CC(=O)N1CCCc2cc(S(=O)(=O)N3CCC(C(=O)NCCC(C)C)CC3)ccc21 56.2 µM [inhibitor, partial curve, poor fit]
CCOc1ccc(S(=O)(=O)Nc2ccc3oc(C)c(C(=O)OCCOC)c3c2)cc1 44.7 µM [inhibitor, partial curve, poor fit]
C[C@]1(C(=O)O)C=C[C@@H](Cc2ccccc2)N1C(=O)c1ccccc1 0.251 µM [inhibitor, full curve, poor fit]
C#CCNC(=O)C1=C[C@H](c2ccc3c(c2)OCO3)C[C@H](OCc2ccc(CO)cc2)O1 5.62 µM [inhibitor, partial curve]
CC(C)c1ccc(C(C(=O)NC2CCCCC2)N(C(=O)c2ccccn2)c2cccnc2)cc1 (stereo unspecified) 0.282 µM [inhibitor, full curve, poor fit]
O=C1CC(c2ccccc2)Cc2[nH]c(=O)c(C(=O)Nc3ccc(OC(F)(F)F)cc3)cc21 (stereo unspecified) 6.31 µM [inhibitor, partial curve]
CCCCCC(=O)NC(=S)NNC(=O)CC 6.31 µM [inhibitor, partial curve]
Cc1cccc(N2CCN(C(=O)C3CCCN(S(=O)(=O)c4cccc5nsnc45)C3)CC2)c1C (stereo unspecified) 35.5 µM [inhibitor, partial curve, poor fit]
O=C(c1cc(-c2ccc(Cl)cc2)on1)N1CCCC1 0.708 µM [inhibitor, full curve, poor fit]
CCOc1ccccc1NC(=O)CCS(=O)(=O)c1cccc2nsnc12 6.31 µM [inhibitor, single point]
COC(C/C=C/[C@@H](O)COCc1ccccc1)OC 14.1 µM [inhibitor, partial curve]
O=C(CCCCCn1c(=O)[nH]c2ccccc2c1=O)NCc1cccc(Cl)c1 39.8 µM [inhibitor, partial curve, poor fit]
O=C(Nc1ccc(Br)cc1)C1CCCN(S(=O)(=O)c2ccc(Br)s2)C1 (stereo unspecified) 2.51 µM [inhibitor, partial curve]
COc1cccc(N2CCN(c3ccc(S(=O)(=O)N4CCN(C)CC4)cc3[N+](=O)[O-])CC2)c1 7.94 µM [inhibitor, full curve, poor fit]
COCCNC(=O)C/C(C)=N/NC(=O)C(=O)NC1CCCCC1 39.8 µM [inhibitor, partial curve]
O=C1CSC(=S)N1/N=C/c1ccc(O)c([N+](=O)[O-])c1 35.5 µM [inhibitor, partial curve]
Cc1oc2cc(O)cc(O)c2c(=O)c1-c1ccc2c(c1)OCCCO2 0.708 µM [inhibitor, full curve, poor fit]
Cc1ccc([C@@H]2CC=C(C(=O)O)[C@H](c3ccc(Cl)cc3)N2S(=O)(=O)c2ccc(C)cc2)cc1 0.316 µM [inhibitor, full curve, poor fit]
O=C(NCc1ccc(Cl)cc1)c1ccc(CSCc2cccc(Cl)c2)o1 2.82 µM [inhibitor, partial curve]
COc1cc(OC)c(OC)cc1CNCCSc1nnnn1-c1ccccc1 44.7 µM [inhibitor, single point]
O=C(O)c1cc(Nc2cc(Cl)c3nonc3c2[N+](=O)[O-])ccc1O 15.8 µM [inhibitor, partial curve]
CCOc1cc(/C=N\Nc2ccc([N+](=O)[O-])cc2)ccc1OCC(=O)Nc1ccc(C)c(C)c1 35.5 µM [inhibitor, single point]
C#CCn1c(COc2ccccc2C)nc2ccccc21 0.282 µM [inhibitor, full curve, poor fit]
COc1ccc(Br)cc1CNC(=O)c1cc(=O)[nH]c2ccc(S(=O)(=O)N3CCCC3)cc12 10 µM [inhibitor, partial curve, poor fit]
C[C@@H]1CN([C@@H](C)CO)C(=O)c2cc(C#Cc3cccc(F)c3)cnc2O[C@@H]1CN(C)CC1CCOCC1 1.78 µM [inhibitor, full curve]
CCN(CC)C(=O)C1=C(C)N(Cc2ccc(F)cc2)C(=O)C(CC(=O)NCCCN(C)C)C1 (stereo unspecified) 0.282 µM [inhibitor, full curve]
O=C(COC(=O)c1cc(-c2cccs2)nc2ccccc12)c1ccc(Br)cc1 0.0562 µM [inhibitor, full curve]
COc1ccc(-n2ncc3c(N4CCN(c5cccc(C)c5C)CC4)ncnc32)cc1 0.794 µM [inhibitor, full curve]
Cc1ccc2nc(Cl)c(/C=C/C(=O)c3ccco3)cc2c1 5.01 µM [inhibitor, full curve]
COc1ccc(N2C(=O)CSC23C(=O)N(CC(=O)NC2CCCCC2)c2ccccc23)cc1 (stereo unspecified) 0.447 µM [inhibitor, partial curve, poor fit]
Cc1nc2ccc(S(=O)(=O)NC(C(=O)N3CCC(C)CC3)C(C)C)cc2s1 (stereo unspecified) 15.8 µM [inhibitor, partial curve, poor fit]
Cn1c(SSc2ccc(-c3cccnc3)n2C)ccc1-c1cccnc1 17.8 µM [inhibitor, partial curve]
Cc1cc(S(=O)(=O)Nc2cccc(Cl)c2)c(C)s1 56.2 µM [inhibitor, partial curve, poor fit]
Cn1c(=O)oc2cc(S(=O)(=O)N3CCC(C(=O)NCc4ccccc4Cl)CC3)ccc21 100 µM [inhibitor, partial curve, poor fit]
S=C(NCCc1ccccc1)N1CCn2cccc2C1c1ccncc1 (stereo unspecified) 15.8 µM [inhibitor, partial curve]
C=CCN1C(=O)c2ccccc2NC1c1ccc(Br)s1 (stereo unspecified) 50.1 µM [inhibitor, partial curve, poor fit]
O=C1c2oc3ccccc3c(=O)c2C(c2ccc(Br)cc2)N1c1ccccn1 (stereo unspecified) 112 µM [inhibitor, partial curve]
CC(=O)c1ccc(NS(=O)(=O)c2cccc3cccnc23)cc1 0.447 µM [inhibitor, full curve, poor fit]
O=C(Cn1cc(S(=O)(=O)Cc2ccccc2Cl)c2ccccc21)NCc1ccccc1Cl 14.1 µM [inhibitor, partial curve]
CCOc1ccccc1Oc1cn[nH]c1-c1ccc(OC)cc1O 44.7 µM [inhibitor, partial curve]
Cc1ccccc1C1CC(=O)Oc2cc(O)ccc21 (stereo unspecified) 31.6 µM [inhibitor, partial curve]

Part of the list above in order of molar mass, rising:
Potency, inconclusive:
Cc1ccccc1C1CC(=O)Oc2cc(O)ccc21 (stereo unspecified) 31.6 µM [inhibitor, partial curve]
Cc1ccc2nc(Cl)c(/C=C/C(=O)c3ccco3)cc2c1 5.01 µM [inhibitor, full curve]
CC(=O)c1ccc(NS(=O)(=O)c2cccc3cccnc23)cc1 0.447 µM [inhibitor, full curve, poor fit]
C=CCN1C(=O)c2ccccc2NC1c1ccc(Br)s1 (stereo unspecified) 50.1 µM [inhibitor, partial curve, poor fit]
CNc1nc(-c2ccc3c(c2)CCN3C(=O)c2ccccc2F)cs1 31.6 µM [inhibitor, partial curve]
Cn1c(SSc2ccc(-c3cccnc3)n2C)ccc1-c1cccnc1 17.8 µM [inhibitor, partial curve]
O=C(CCCCCn1c(=O)[nH]c2ccccc2c1=O)NCc1cccc(Cl)c1 39.8 µM [inhibitor, partial curve, poor fit]
COc1ccc(-n2ncc3c(N4CCN(c5cccc(C)c5C)CC4)ncnc32)cc1 0.794 µM [inhibitor, full curve]
C#CCNC(=O)C1=C[C@H](c2ccc3c(c2)OCO3)C[C@H](OCc2ccc(CO)cc2)O1 5.62 µM [inhibitor, partial curve]
CC(=O)N1CCCc2cc(S(=O)(=O)N3CCC(C(=O)NCCC(C)C)CC3)ccc21 56.2 µM [inhibitor, partial curve, poor fit]
O=C(COC(=O)c1cc(-c2cccs2)nc2ccccc12)c1ccc(Br)cc1 0.0562 µM [inhibitor, full curve]
CC(C)c1ccc(C(C(=O)NC2CCCCC2)N(C(=O)c2ccccn2)c2cccnc2)cc1 (stereo unspecified) 0.282 µM [inhibitor, full curve, poor fit]
COc1ccc(N2C(=O)CSC23C(=O)N(CC(=O)NC2CCCCC2)c2ccccc23)cc1 (stereo unspecified) 0.447 µM [inhibitor, partial curve, poor fit]

Next part:

Activity change, negative = inhibition, inactive:
O=C1c2ccccc2S(=O)(=O)N1Cc1ccccc1[N+](=O)[O-] -16.8%
O=S(=O)(Nc1cccc(-c2ccc(N3CCCCC3)nn2)c1)c1cccs1 -22.5%
COC(=O)c1[nH]c2ccc(C)cc2c1NC(=O)c1ccccc1[N+](=O)[O-] -2.25%
O=[N+]([O-])c1ccc(Sc2nc3ccccc3o2)c([N+](=O)[O-])c1 -21.9%
O=C(Cc1ccccc1)NCC(=O)OCc1ccc([N+](=O)[O-])cc1 -2.51%
O=C(Nc1ccccc1Oc1ccccc1)c1cc([N+](=O)[O-])ccc1Cl -21.6%
O=c1c2c(-c3ccccc3)csc2nc2c3ccccc3c(NCCN3CCOCC3)nn12 -11.2%
Cc1ccc(N=C2NC(=O)/C(=C/C=C/c3ccco3)S2)cc1 -17.8%
O=C(Nc1ccccc1)Nc1ccc2c(c1)CCC2 -14.6%
CCC(Oc1ccccc1)C(=O)Nc1ccc(S(=O)(=O)Nc2cnc3ccccc3n2)cc1 (stereo unspecified) -10.6%
CCN1CCN(C(C)C(=O)NC2CCCCC2)CC1 (stereo unspecified) 1.92%
C=C(C)CSc1cc(C)c(C#N)c2nc3ccccc3n12 -14.3%
COc1cccc(C(=O)NC2CC3CCCC(C2)N3CC(=O)Nc2ccccc2)c1 (stereo unspecified) -20.2%
O=C(COc1ccc(F)cc1)Nc1nc2c(s1)CCCC2 -12.5%
CC(C)(C)c1ccc(C2Sc3ccccc3NC3=C2C(=O)c2ccccc23)cc1 (stereo unspecified) -16.9%
COCCN(CC(=O)NCC1CCCO1)C(=O)CCC(=O)Nc1ccccn1 (stereo unspecified) -10.8%
CC(=O)NC(c1ccc(Cl)cc1)c1ccc2cccnc2c1O (stereo unspecified) 8.41%
CCCn1c(SCc2nc(-c3ccccc3C)no2)nnc1-c1ccc(Cl)cc1 -19.7%
CC(=O)Nc1ccc(C(=O)COC(=O)c2nc3nc(C)cc(C)n3n2)cc1 -22.3%
O=C(O)C(=Cc1cccc([N+](=O)[O-])c1)c1ccc(Cl)cc1 3.53%
